36 compounds from PubChem BioAssay AID2685 (National Center for Advancing Translational Sciences (NCATS), 2010) can be followed below.

Structures are written as SMILES. Some of the results follow. These are further read-outs of the screen, such as a control signal, another cell line or another target. No call is given for them. The list favours compounds with an active or inconclusive main result. The note in brackets gives the kind of curve behind each potency; many fits are weak.

The nature of the experiment: qHTS Assay for Lipid Storage Modulators in Drosophila S3 Cells.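 On cell number change: cells counted by Cell Tracker Red CMTPX staining in the red channel.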 Particulars: BODIPY lipid droplet fluorescence, 18-24 h; for cell number change: measured here: cell count max response, cells fed with added oleic acid. The method, boiled down:
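Laser-scanning cytometry quantifies lipid droplet accumulation (500–530 nm total intensity; droplet/cell object ratio) in oleic acid-fed (400 uM added) Drosophila S3 cells treated with a concentration series. 20 uM Triacsin C defined 100% inhibition.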
For orientation: In qHTS, concentration-response curves come from the screen itself.

[1] abbreviates: measured here: cell number channel AC50, cells fed with added oleic acid.
[2] abbreviates: measured here: lipid fluorescence (Fed channel) AC50, cells fed with added oleic acid.

As usually defined, the AC50 is the midpoint of the concentration-response curve, whichever way the signal moves. For the compound `COc1cc2c(cc1OC)CN(CC(=O)Nc1ccccc1C#N)CC2`, the cell number change worked out at 38.7%. For the same compound, the AC50 under setting [1] is 0.461 µM [rising, single point]. The AC50 under setting [2] is 29.1 µM [rising, single point].

Consider `O=C(OC(C(=O)Nc1ccc(Cl)cc1C(F)(F)F)c1ccccc1)c1c(Cl)cccc1Cl` (stereo not drawn), for which the cell number change is -24%. Moreover, the AC50 under setting [2] was 6.51 µM [rising, single point].

As to `Nc1ccc2oc(CCc3ccccc3)nc2c1`, the cell number change is -3.57%. Besides, the AC50 under setting [2] was 29.1 µM [falling, single point].

Take `NC(=O)c1ccc(Oc2ncc(C(F)(F)F)cc2Cl)cc1`: the cell number change was -17.2%. Besides, the AC50 under setting [2] was 6.51 µM [falling, single point].

For the compound `COc1ccc(C2SCCN2C(=S)Nc2cccc(C(F)(F)F)c2)cc1` (stereo not drawn), the cell number change is -17.9%. The AC50 under setting [2] is 29.1 µM [falling, single point].

For `CCOC(=O)c1cccc(C2=CC(=O)C[C@H](c3ccc(Cl)cc3)C2)c1`, the cell number change was -28.7%. For the same compound, under setting [1], the AC50 is 2.59 µM [falling, full curve, poor fit]. Besides, the AC50 under setting [2] was 2.59 µM [falling, full curve].

Take `O=C1CCc2cc(S(=O)(=O)N3CCCC3C(=O)N3CCN(c4ccccc4F)CC3)ccc2N1` (stereo not drawn): the cell number change came to 6.76%. The half-maximal activity concentration (AC50) under setting [2] is 0.651 µM [falling, single point].

As for `CCOCCCn1c(=N)c(C(=O)NCc2ccc3c(c2)OCO3)cc2c(=O)n3ccccc3nc21`, the cell number change is -11.6%. Moreover, under setting [2], the AC50 is 4.11 µM [rising, full curve, poor fit].

As to `c1ccc(C2[C@H]3CN(CC4CCCCC4)[C@H](c4ccccc4)C34CC2(c2cccnc2)C4)cc1` (stereo partly drawn), the cell number change came out at 18.4%. For the same compound, under setting [2], the AC50 was 1.16 µM [rising, full curve].

As to `Oc1ccc(Cl)cc1CNCC1CCCCC1`, the cell number change was -35.2%. The AC50 under setting [1] is 20.6 µM [falling, single point]. Besides, under setting [2], the half-maximal activity concentration (AC50) was 29.1 µM [rising, single point].

For `O=C(Nc1ccc(CN2CCCCC2)cc1)Nc1ccc(Br)cc1Cl`, the cell number change is 6.78%.

With `Cc1c(N(C)C)nc2ccccc2c1N`, the cell number change was -23.5%. Also, under setting [1], the AC50 is 4.11 µM [falling, full curve, poor fit]. Under setting [2], the AC50 was 25.9 µM [falling, single point].

For the compound `COc1ccc(-c2[nH]ncc2/C=C(\C#N)C(=O)NC2CC2)cc1`, the cell number change is 8.19%. Further, the AC50 under setting [2] was 0.259 µM [rising, full curve, poor fit].

As for `C=C(C)c1nc2cc(OC)c(OC)cc2c(=O)o1`, the AC50 under setting [2] is 0.00461 µM [rising, full curve, poor fit].

Take `CN(C)c1nc(OCCOC(=O)c2ccccc2)nc(N(C)C)n1`: the cell number change is -14.2%. For the same compound, the AC50 under setting [1] was 0.731 µM [rising, single point]. The AC50 under setting [2] was 29.1 µM [rising, partial curve].

On to `O=c1ccc(N=Nc2ccccc2)ccc1O`, for which the cell number change is -21.3%. Moreover, under setting [2], the AC50 was 16.4 µM [falling, partial curve].

As for `Cc1ccc(C)c(NC(=O)CN(C)C(=O)[C@@H](NC(=O)c2ccc(C(C)(C)C)cc2)C(C)C)c1`, the cell number change was -61.8%. For the same compound, the AC50 under setting [1] is 18.4 µM [falling, single point]. Moreover, under setting [2], the AC50 was 16.4 µM [falling, single point].

Take `CNc1nc(-c2ccccc2)cc(-c2ccccc2)n1`: the cell number change is 8.01%.

Take `CN1CCN(NC(=O)/C=C/c2ccc(Br)cc2)CC1`: the cell number change came out at 22%. In addition, the AC50 under setting [1] is 3.66 µM [rising, partial curve]. For the same compound, under setting [2], the AC50 was 10.3 µM [rising, partial curve, poor fit].

Take `COc1ccc(/C=C2\SC(=O)N(CCNC(=O)C3CC(=O)N(c4ccccc4)C3)C2=O)cc1` (stereo not drawn): the cell number change amounted to 1.02%. In addition, under setting [1], the AC50 is 5.8 µM [falling, single point].

As to `CCn1nc(NC(=O)c2ccccn2)c2cc3cccc(C)c3nc21`, the cell number change was -0.0644%.

`Cc1ccc(/C=C/C(O)=C2/C(=O)N(C)C3(C)CC2c2ccccc2O3)cc1` (stereo not drawn): the cell number change was -20.5%. Also, the AC50 under setting [2] is 3.66 µM [rising, partial curve, poor fit].

`COc1ccccc1OCC(=O)N/N=C1\CCc2ccccc21`: the cell number change was 44.5%. The concentration at half-maximal activity (AC50) under setting [1] was 1.64 µM [rising, full curve]. Further, the AC50 under setting [2] was 2.31 µM [rising, partial curve].

With `O=C(NCc1ccccc1Cl)c1ccc2ccccc2n1`, the cell number change was -15.9%. Also, the AC50 under setting [2] was 6.51 µM [rising, single point].

Turning to `Cc1ccc(S(=O)(=O)N(C)c2nc3ccccc3n3c(C(C)C)nnc23)cc1`, the cell number change is -17%. Moreover, under setting [1], the AC50 is 4.61 µM [falling, single point]. Also, under setting [2], the AC50 was 6.51 µM [falling, single point].

Turning to `O=C(Nc1cnn(Cc2ccc(Cl)cc2)c1)C1CCCC1`, the cell number change came out at 0.583%. In addition, the AC50 under setting [2] is 4.11 µM [rising, single point].

Regarding `CCCn1c(=O)c2c(C(=O)OCC)cc(-c3ccco3)nc2n(CCC)c1=O`, the cell number change was -42.3%. The AC50 under setting [1] is 29.1 µM [falling, single point]. Besides, under setting [2], the AC50 was 23.1 µM [falling, single point].

As to `CCOC(=O)C1CCN(C(=O)c2ccc3c(c2)C(=O)N(c2ccccc2C)C3=O)CC1`, the cell number change came out at 15%. Besides, under setting [2], the AC50 was 4.11 µM [falling, partial curve].

As for `CC(C)(C)OC(=O)N1CCC(NC(=O)c2[nH]cnc2C(=O)Nc2ccccc2)CC1`, the cell number change is -73.8%. Also, under setting [1], the AC50 was 5.17 µM [falling, single point]. In addition, under setting [2], the AC50 was 1.84 µM [falling, single point].

Regarding `N#CCCSc1nc(N2CCOCC2)c2c(c1C#N)CCCC2`, the cell number change was -10.7%. Also, the AC50 under setting [2] was 0.00517 µM [falling, full curve, poor fit].

Turning to `Cc1cc(OCc2cccc(Cl)c2)c(C)cc1CN1CCOCC1`, the cell number change was -26%. The AC50 under setting [2] is 18.4 µM [falling, partial curve, poor fit].

Turning to `O=[N+]([O-])c1ccccc1S(=O)(=O)c1ccccc1`, the cell number change stood at 28.4%. Besides, under setting [2], the AC50 was 6.51 µM [rising, single point].

With `Cc1ccc(NC(=O)C(Cc2ccccc2)NC(=O)OCc2ccccc2)cc1C` (stereo not drawn), the cell number change is -16%.

As to `COc1ccc(NC(=O)CCNS(=O)(=O)c2cccc3nonc23)cc1Cl`, the cell number change was -25.7%. Under setting [2], the AC50 is 6.51 µM [falling, single point].

Take `O=c1[nH]c2cc3c(cc2cc1CN(CCN1CCOCC1)C(=S)NCC1CCCO1)OCO3` (stereo not drawn): the cell number change is 0.428%. Further, the AC50 under setting [2] was 7.31 µM [rising, single point].

Take `CC(C)CC(NC(=O)c1ccco1)C(=O)Nc1ccc2c(c1)OCCO2` (stereo not drawn): the cell number change was 1.56%. Also, the AC50 under setting [2] was 7.31 µM [rising, partial curve, poor fit].
